This passage reports isolated yield results from patent US20230211023A1 (Erasmus University Medical Center Rotterdam, priority 2020, published 2023).

Plain letter strings leave the end groups untold.

The data set can be described thus: general procedure: Fmoc solid-phase peptide synthesis; 2-chlorotrityl chloride; HATU/DIPEA. The conditions noted are these: whole synthesis.

Sequence VSGWRLFKKIS gave an isolated yield of 16.8%.
